Amino acid sequences for entries named in this document (tags omitted). A change or cut given only in a name is not applied to a line headed by its entry.
UniProt P78371: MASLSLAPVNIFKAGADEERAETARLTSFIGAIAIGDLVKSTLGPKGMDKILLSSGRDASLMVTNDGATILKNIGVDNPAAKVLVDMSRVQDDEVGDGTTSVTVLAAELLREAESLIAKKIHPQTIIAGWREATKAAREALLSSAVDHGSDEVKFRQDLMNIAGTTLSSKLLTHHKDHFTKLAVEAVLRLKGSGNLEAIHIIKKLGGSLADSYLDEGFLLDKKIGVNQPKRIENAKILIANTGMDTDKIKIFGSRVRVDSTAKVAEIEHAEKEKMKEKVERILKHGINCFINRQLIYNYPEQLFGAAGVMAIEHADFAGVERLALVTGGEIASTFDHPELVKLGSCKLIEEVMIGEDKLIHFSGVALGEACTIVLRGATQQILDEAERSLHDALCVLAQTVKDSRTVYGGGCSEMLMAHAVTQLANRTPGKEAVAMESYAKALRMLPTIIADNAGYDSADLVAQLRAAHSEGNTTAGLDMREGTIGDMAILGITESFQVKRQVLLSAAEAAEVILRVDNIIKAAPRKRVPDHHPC
UniProt Q9NY25: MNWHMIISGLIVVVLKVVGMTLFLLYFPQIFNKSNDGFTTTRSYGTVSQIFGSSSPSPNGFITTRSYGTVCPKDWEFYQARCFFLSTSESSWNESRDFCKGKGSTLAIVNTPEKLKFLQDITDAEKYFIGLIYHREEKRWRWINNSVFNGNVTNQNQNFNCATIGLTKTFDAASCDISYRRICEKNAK
UniProt O14735: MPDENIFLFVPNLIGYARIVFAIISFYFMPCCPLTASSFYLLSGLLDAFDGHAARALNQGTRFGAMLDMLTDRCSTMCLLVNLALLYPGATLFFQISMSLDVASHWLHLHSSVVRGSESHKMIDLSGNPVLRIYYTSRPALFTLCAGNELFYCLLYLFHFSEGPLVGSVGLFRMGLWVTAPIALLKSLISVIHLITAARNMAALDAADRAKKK
UniProt P50990: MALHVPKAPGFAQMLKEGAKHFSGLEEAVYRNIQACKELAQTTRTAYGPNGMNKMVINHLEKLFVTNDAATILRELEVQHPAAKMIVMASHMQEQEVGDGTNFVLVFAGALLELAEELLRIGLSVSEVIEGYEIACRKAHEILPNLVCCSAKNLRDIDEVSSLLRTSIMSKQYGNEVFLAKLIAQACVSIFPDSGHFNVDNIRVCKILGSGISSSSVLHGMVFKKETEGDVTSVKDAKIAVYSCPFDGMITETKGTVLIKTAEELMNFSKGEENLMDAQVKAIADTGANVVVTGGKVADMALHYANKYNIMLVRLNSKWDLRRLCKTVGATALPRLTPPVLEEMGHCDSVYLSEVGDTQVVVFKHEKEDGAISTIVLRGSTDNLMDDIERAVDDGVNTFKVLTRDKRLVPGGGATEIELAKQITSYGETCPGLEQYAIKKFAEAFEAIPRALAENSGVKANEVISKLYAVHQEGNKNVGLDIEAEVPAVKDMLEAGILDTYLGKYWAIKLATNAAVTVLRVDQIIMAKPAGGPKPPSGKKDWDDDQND
UniProt Q5VV42: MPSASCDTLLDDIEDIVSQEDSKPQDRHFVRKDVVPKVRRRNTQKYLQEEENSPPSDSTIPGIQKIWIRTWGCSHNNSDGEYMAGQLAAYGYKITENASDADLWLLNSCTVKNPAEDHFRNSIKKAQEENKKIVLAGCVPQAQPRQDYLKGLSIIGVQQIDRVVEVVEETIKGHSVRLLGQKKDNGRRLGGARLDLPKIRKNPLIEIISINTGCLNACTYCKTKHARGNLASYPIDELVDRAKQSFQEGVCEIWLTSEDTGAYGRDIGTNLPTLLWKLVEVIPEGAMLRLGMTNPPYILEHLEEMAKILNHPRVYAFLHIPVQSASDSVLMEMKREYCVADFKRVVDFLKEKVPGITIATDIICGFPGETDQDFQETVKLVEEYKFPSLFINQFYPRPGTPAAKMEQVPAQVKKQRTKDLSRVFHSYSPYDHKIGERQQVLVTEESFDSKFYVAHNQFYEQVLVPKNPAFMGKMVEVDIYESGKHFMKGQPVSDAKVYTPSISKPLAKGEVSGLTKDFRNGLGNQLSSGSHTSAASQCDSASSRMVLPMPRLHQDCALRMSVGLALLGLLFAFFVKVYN
UniProt Q96BQ5: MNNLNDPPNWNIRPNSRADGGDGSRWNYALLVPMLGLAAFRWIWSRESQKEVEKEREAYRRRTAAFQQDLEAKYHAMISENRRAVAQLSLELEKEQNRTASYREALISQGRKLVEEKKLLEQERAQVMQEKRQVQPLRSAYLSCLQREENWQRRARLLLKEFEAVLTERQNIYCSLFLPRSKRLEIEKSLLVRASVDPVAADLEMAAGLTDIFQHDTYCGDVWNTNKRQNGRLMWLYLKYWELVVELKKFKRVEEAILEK
UniProt P38432, whole entry: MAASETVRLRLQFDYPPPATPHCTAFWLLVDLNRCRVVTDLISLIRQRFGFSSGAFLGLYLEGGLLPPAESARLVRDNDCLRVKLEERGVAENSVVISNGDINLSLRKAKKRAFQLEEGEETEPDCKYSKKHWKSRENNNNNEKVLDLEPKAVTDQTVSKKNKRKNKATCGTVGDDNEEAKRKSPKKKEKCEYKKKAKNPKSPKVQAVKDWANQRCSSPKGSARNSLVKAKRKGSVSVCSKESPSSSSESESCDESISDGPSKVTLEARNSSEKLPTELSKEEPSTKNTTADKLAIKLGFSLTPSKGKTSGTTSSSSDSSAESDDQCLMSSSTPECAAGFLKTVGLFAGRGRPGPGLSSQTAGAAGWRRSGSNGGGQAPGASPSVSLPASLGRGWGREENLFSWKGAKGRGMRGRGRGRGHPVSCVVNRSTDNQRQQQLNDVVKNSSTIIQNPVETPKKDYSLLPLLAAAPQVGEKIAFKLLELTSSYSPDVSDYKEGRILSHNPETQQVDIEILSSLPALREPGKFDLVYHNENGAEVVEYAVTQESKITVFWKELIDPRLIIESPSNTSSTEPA
UniProt Q9NVX0: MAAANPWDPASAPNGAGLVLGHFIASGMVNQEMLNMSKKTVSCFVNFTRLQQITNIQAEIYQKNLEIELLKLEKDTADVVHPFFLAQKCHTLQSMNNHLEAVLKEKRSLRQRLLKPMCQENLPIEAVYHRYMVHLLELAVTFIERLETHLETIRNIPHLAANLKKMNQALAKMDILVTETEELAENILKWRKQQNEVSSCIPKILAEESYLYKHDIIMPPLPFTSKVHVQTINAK
UniProt Q9BRQ6: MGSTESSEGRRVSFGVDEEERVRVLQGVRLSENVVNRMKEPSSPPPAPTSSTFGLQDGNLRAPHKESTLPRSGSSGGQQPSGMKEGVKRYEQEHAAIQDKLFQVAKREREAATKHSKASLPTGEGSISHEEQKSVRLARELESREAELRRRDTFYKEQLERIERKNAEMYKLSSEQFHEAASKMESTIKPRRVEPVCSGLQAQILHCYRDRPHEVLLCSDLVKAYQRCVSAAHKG
UniProt Q9Y6R9: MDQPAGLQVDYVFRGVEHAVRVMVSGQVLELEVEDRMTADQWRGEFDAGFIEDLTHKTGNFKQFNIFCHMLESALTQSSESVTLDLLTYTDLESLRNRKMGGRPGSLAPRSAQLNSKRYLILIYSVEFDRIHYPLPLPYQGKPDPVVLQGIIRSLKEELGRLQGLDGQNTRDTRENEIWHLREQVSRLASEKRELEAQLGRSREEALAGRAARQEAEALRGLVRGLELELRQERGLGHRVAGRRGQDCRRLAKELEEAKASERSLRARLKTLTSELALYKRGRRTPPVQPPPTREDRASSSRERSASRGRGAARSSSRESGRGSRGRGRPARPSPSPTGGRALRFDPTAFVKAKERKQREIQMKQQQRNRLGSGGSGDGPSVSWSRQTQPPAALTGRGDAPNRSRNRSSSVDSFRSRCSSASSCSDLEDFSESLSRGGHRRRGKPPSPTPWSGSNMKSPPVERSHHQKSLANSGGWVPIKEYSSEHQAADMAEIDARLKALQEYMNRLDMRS
UniProt Q9H3R5: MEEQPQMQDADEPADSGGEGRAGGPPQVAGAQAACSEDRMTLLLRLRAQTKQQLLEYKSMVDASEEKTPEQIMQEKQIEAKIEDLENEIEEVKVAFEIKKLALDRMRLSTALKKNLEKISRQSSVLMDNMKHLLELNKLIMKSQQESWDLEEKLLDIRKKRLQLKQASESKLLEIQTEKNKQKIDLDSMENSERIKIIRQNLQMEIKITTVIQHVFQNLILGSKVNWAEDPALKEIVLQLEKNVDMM
UniProt O14646: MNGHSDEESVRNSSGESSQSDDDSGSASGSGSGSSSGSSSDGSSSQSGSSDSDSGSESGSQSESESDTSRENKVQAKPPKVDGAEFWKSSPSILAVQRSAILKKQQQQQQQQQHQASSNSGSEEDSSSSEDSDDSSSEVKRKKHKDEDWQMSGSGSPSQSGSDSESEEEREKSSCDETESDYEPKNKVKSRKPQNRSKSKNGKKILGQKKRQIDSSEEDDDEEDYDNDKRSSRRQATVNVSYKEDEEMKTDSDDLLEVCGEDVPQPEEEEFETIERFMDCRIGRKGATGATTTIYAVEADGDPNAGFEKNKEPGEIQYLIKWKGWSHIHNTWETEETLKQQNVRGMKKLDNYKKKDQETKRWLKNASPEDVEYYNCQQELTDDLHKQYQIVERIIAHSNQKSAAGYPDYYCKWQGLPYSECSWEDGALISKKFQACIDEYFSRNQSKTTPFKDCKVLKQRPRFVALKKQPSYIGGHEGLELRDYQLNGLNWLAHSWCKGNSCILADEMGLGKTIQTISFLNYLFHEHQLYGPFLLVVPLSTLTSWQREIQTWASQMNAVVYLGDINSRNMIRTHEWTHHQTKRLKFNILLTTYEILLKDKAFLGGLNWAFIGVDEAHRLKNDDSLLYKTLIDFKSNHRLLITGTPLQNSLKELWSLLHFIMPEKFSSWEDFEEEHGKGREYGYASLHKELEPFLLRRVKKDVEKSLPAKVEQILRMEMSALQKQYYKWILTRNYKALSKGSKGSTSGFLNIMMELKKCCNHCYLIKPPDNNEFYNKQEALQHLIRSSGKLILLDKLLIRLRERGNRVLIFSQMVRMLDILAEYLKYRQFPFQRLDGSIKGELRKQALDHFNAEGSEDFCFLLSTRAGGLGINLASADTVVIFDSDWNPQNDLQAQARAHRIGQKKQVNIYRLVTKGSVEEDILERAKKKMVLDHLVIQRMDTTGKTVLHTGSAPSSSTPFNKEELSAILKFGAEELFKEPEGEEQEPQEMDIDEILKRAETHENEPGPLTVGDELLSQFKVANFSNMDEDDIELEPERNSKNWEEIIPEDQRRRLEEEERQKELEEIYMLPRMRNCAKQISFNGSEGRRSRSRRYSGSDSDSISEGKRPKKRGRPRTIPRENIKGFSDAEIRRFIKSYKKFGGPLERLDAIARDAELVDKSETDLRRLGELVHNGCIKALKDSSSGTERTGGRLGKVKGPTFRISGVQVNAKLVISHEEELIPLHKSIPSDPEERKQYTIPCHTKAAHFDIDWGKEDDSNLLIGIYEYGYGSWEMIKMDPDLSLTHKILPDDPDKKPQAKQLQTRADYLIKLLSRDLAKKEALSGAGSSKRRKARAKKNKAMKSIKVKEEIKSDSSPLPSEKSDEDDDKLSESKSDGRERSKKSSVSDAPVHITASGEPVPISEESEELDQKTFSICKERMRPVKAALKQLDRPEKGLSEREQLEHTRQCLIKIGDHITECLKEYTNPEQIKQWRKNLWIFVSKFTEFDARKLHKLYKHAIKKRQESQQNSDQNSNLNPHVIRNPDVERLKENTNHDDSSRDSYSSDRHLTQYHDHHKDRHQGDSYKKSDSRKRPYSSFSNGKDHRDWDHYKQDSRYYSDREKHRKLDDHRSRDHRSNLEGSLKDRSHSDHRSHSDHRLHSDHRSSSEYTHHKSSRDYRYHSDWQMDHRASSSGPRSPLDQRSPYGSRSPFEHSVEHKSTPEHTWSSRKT
UniProt O60563, whole entry: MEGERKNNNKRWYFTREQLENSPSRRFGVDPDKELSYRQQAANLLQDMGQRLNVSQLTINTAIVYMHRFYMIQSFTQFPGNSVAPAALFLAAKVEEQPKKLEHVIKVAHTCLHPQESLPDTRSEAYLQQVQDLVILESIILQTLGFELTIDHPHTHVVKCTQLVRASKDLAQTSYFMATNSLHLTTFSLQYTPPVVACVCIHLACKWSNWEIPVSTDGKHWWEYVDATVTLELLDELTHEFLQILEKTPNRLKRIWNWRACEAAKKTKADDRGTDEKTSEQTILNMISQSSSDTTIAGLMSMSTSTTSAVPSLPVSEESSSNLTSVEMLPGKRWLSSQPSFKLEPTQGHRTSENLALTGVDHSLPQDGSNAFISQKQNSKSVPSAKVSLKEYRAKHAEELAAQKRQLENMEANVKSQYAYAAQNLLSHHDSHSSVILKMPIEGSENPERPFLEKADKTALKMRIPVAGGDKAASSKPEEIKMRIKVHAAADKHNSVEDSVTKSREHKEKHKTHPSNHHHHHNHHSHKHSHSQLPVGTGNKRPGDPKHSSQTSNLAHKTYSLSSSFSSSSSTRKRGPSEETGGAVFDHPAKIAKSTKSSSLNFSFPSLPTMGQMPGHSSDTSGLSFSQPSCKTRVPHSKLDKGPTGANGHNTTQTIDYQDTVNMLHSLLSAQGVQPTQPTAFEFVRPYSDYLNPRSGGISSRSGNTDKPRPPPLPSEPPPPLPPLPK

This is one part of the list.
These targets were tested with COc1ccc(Cn2ccc3ccc(C(=O)NO)cc32)cc1 (assay: dose-dependent thermal stabilisation call (2D-TPP, DLPTP, 10% FDR) (binary (1 = stabilised)); higher = stabilised by the compound). Details: system: HL-60 intact cells; concentration range 0.04-10 µM.
CD99L2 (UniProt Q8TCZ2) was tested, and the “dose-dependent thermal stabilisation call” value was inactive: 0.
With CDC37 (UniProt Q16543) the “dose-dependent thermal stabilisation call” value was inactive: 0.
CCDC104 (UniProt Q96G28) was tested, and the “dose-dependent thermal stabilisation call” value was inactive: 0.
In the case of CCT2 (UniProt P78371), the “dose-dependent thermal stabilisation call” value is reported as inactive: 0.
For CCDC56 (UniProt Q9Y2R0), the “dose-dependent thermal stabilisation call” value was inactive: 0.
In the case of CLEC5A (UniProt Q9NY25), the “dose-dependent thermal stabilisation call” value is reported as inactive: 0.
With CCDC59 (UniProt Q9P031) the “dose-dependent thermal stabilisation call” value was inactive: 0.
For CFDP1 (UniProt Q9UEE9), the “dose-dependent thermal stabilisation call” value was inactive: 0.
With CIRBP (UniProt Q14011) the “dose-dependent thermal stabilisation call” value was inactive: 0.
With COMMD1 (UniProt Q8N668) the “dose-dependent thermal stabilisation call” value was inactive: 0.
In the case of CDIPT (UniProt O14735), the “dose-dependent thermal stabilisation call” value is reported as inactive: 0.
In the case of CDS2 (UniProt O95674), the “dose-dependent thermal stabilisation call” value is reported as inactive: 0.
For CCT8 (UniProt P50990), the “dose-dependent thermal stabilisation call” value was inactive: 0.
For CLK2 (UniProt P49760), the “dose-dependent thermal stabilisation call” value was inactive: 0.
With CDKAL1 (UniProt Q5VV42) the “dose-dependent thermal stabilisation call” value was inactive: 0.
For CDCA5 (UniProt Q96FF9), the “dose-dependent thermal stabilisation call” value was inactive: 0.
For CCDC127 (UniProt Q96BQ5), the “dose-dependent thermal stabilisation call” value was inactive: 0.
With COIL (UniProt P38432) the “dose-dependent thermal stabilisation call” value was inactive: 0.
For CIZ1 (UniProt Q9ULV3), the “dose-dependent thermal stabilisation call” value was inactive: 0.
With CHCHD3 (UniProt Q9NX63) the “dose-dependent thermal stabilisation call” value was inactive: 0.
CHID1 (UniProt Q9BWS9) was tested, and the “dose-dependent thermal stabilisation call” value was inactive: 0.
With CEP27 (UniProt Q9NVX0) the “dose-dependent thermal stabilisation call” value was inactive: 0.
For CCDC93 (UniProt Q567U6), the “dose-dependent thermal stabilisation call” value was active: 1.
CD302 (UniProt Q8IX05) was tested, and the “dose-dependent thermal stabilisation call” value was inactive: 0.
CEP63 (UniProt Q96MT8) was tested, and the “dose-dependent thermal stabilisation call” value was inactive: 0.
CHCHD6 (UniProt Q9BRQ6) was tested, and the “dose-dependent thermal stabilisation call” value was inactive: 0.
CCDC61 (UniProt Q9Y6R9) was tested, and the “dose-dependent thermal stabilisation call” value was inactive: 0.
With CENPH (UniProt Q9H3R5) the “dose-dependent thermal stabilisation call” value was inactive: 0.
With CENPE (UniProt Q02224) the “dose-dependent thermal stabilisation call” value was inactive: 0.
CCDC109B (UniProt Q9NWR8) was tested, and the “dose-dependent thermal stabilisation call” value was inactive: 0.
With CNOT8 (UniProt Q9UFF9) the “dose-dependent thermal stabilisation call” value was inactive: 0.
In the case of CEBPB (UniProt P17676), the “dose-dependent thermal stabilisation call” value is reported as inactive: 0.
CCDC90B (UniProt Q9GZT6) was tested, and the “dose-dependent thermal stabilisation call” value was inactive: 0.
For CCDC55 (UniProt Q9H0G5), the “dose-dependent thermal stabilisation call” value was inactive: 0.
For CHD1 (UniProt O14646), the “dose-dependent thermal stabilisation call” value was inactive: 0.
For CCDC137 (UniProt Q6PK04), the “dose-dependent thermal stabilisation call” value was inactive: 0.
With CD99 (UniProt P14209) the “dose-dependent thermal stabilisation call” value was inactive: 0.
In the case of CCNT1 (UniProt O60563), the “dose-dependent thermal stabilisation call” value is reported as inactive: 0.
